Experimental data published in the supplement of paper PMC10398353.
“And” between values parts separate entries of the source, which are not always exact repeats. Equal entries are not always repeated. Structures can show the parent of a compound that is named as a salt. ± gives the standard deviation of the averaged measurements. Some of the results follow. Single values of this set are uncertain.

Tested on: Salmonella enterica serovar Typhimurium ST313 D23580
Test: normalized bacterial growth (OD600 20 h minus 0 h, interquartile-mean normalized) (fraction of plate interquartile mean); higher = more bacterial growth (less inhibition)
Conditions: LPM (pH 5.8, low phosphate, low Mg2+), concentration: 10 µM, temperature: 37 °C

Row | SMILES | normalized bacterial growth
1 | COc1ccc2c(OC)c3ccoc3nc2c1OC | 1.1
2 | O=c1cc(-c2ccc(O)c(-c3c(O)cc(O)c4c(=O)cc(-c5ccc(O)cc5)oc34)c2)oc2cc(O)cc(O)c12 | 0.746
3 | CC1CC(OC(=O)C(O)c2ccccc2)CC(C)(C)N1C (configuration not stated) [Eucatropine hydrochloride] | 1.3
4 | CC1CC(OC(=O)C(O)c2ccccc2)CC(C)(C)N1C (configuration not stated) | 1.16
5 | OC[C@H]1O[C@@H](n2cnc3c(NCc4ccco4)ncnc32)[C@H](O)[C@@H]1O | 0.459
6 | Cc1cnc(NC(=O)C2=C(O)c3ccccc3S(=O)(=O)N2C)s1 [Meloxicam] | 0.613
7 | Cc1cnc(NC(=O)C2=C(O)c3ccccc3S(=O)(=O)N2C)s1 [Meloxicam sodium] | 1.26
8 | O=C(O)CCCc1ccccc1 | 1.13 and 1.04
9 | NC1=NCCN1CC(=O)O | 0.965
10 | CC1(C)O[C@@H]2C[C@H]3[C@@H]4CCC5=CC(=O)C=C[C@]5(C)[C@@]4(F)[C@@H](O)C[C@]3(C)[C@]2(C(=O)CO)O1 | 1.13
11 | N=C(N)SCCc1c[nH]cn1 [Imetit dihydrobromide] | 1.07
12 | C[C@@H]1C[C@H]2[C@@H]3CCC4=CC(=O)C=C[C@]4(C)[C@@]3(F)[C@@H](O)C[C@]2(C)[C@@]1(O)C(=O)CO | 0.774
13 | OC1(c2ccc(Cl)c(C(F)(F)F)c2)CCN(CCCC(c2ccc(F)cc2)c2ccc(F)cc2)CC1 | 1.33
14 | O=C(O)COC(=O)Cc1ccccc1Nc1c(Cl)cccc1Cl [Aceclofenac] | 1.15
15 | CC1(O)CC2C(CC1O)C2(C)C (configuration not stated) | 0.801
16 | CN1CCN(c2nc3cc(C(F)(F)F)ccc3n3cccc23)CC1 | 1.04
17 | O=C(O)/C=C/c1ccc(Cn2ccnc2)cc1 [Ozagrel hydrochloride] | 1.27
18 | O=C(O[C@@H]1Cc2c(O)cc(O)cc2O[C@@H]1c1cc(O)c(=O)c2c(O)c(O)cc([C@H]3Oc4cc(O)cc(O)c4C[C@H]3O)c2c1)c1cc(O)c(O)c(O)c1 | 1.06
19 | COC(=O)CC[C@@H](C)[C@H]1CC[C@H]2[C@@H]3CC[C@@H]4C[C@H](O)CC[C@]4(C)[C@H]3C[C@H](O)[C@]12C | 0.751
20 | COC(=O)C1=CO[C@@H](C)[C@@H]2CN3CCc4c([nH]c5ccccc45)[C@@H]3C[C@H]12 | 0.734
21 | C[C@@H]1O[C@@H](O[C@H]2[C@H](O[C@H]3CC[C@@]4(C)[C@@H](CC[C@]5(C)[C@@H]4CC=C4[C@@H]6CC(C)(C)CC[C@]6(C(=O)O[C@@H]6O[C@H](CO[C@@H]7O[C@H](CO)[C@@H](O[C@@H]8O[C@@H](C)[C@H](O)[C@@H](O)[C@H]8O)[C@H](O)[C@H]7O)[C@@H](O)[C@H](O)[C@H]6O)CC[C@]45C)[C@]3(C)CO)OC[C@H](O)[C@@H]2O)[C@H](O)[C@H](O)[C@H]1O | 1.15
22 | C[C@H]1CC2C3CCC4=CC(=O)C=C[C@]4(C)[C@@]3(F)[C@@H](O)C[C@]2(C)[C@@]1(O)C(=O)COP(=O)(O)O (some centres not stated) | 0.99
23 | CCOC(=O)CCCCCCCCCCCCC1C=CCC1 (configuration not stated) | 1.03
24 | O=c1c(-c2ccc(O)cc2)coc2c([C@@H]3O[C@H](CO)[C@@H](O)[C@H](O)[C@H]3O)c(O)ccc12 | 1.22

From entry 5 as far as 21, as listed above:
Row | SMILES | normalized bacterial growth
5 | OC[C@H]1O[C@@H](n2cnc3c(NCc4ccco4)ncnc32)[C@H](O)[C@@H]1O | 0.459
6 | Cc1cnc(NC(=O)C2=C(O)c3ccccc3S(=O)(=O)N2C)s1 [Meloxicam] | 0.613
7 | Cc1cnc(NC(=O)C2=C(O)c3ccccc3S(=O)(=O)N2C)s1 [Meloxicam sodium] | 1.26
8 | O=C(O)CCCc1ccccc1 | 1.13 and 1.04
9 | NC1=NCCN1CC(=O)O | 0.965
10 | CC1(C)O[C@@H]2C[C@H]3[C@@H]4CCC5=CC(=O)C=C[C@]5(C)[C@@]4(F)[C@@H](O)C[C@]3(C)[C@]2(C(=O)CO)O1 | 1.13
11 | N=C(N)SCCc1c[nH]cn1 [Imetit dihydrobromide] | 1.07
12 | C[C@@H]1C[C@H]2[C@@H]3CCC4=CC(=O)C=C[C@]4(C)[C@@]3(F)[C@@H](O)C[C@]2(C)[C@@]1(O)C(=O)CO | 0.774
13 | OC1(c2ccc(Cl)c(C(F)(F)F)c2)CCN(CCCC(c2ccc(F)cc2)c2ccc(F)cc2)CC1 | 1.33
14 | O=C(O)COC(=O)Cc1ccccc1Nc1c(Cl)cccc1Cl [Aceclofenac] | 1.15
15 | CC1(O)CC2C(CC1O)C2(C)C (configuration not stated) | 0.801
16 | CN1CCN(c2nc3cc(C(F)(F)F)ccc3n3cccc23)CC1 | 1.04
17 | O=C(O)/C=C/c1ccc(Cn2ccnc2)cc1 [Ozagrel hydrochloride] | 1.27
18 | O=C(O[C@@H]1Cc2c(O)cc(O)cc2O[C@@H]1c1cc(O)c(=O)c2c(O)c(O)cc([C@H]3Oc4cc(O)cc(O)c4C[C@H]3O)c2c1)c1cc(O)c(O)c(O)c1 | 1.06
19 | COC(=O)CC[C@@H](C)[C@H]1CC[C@H]2[C@@H]3CC[C@@H]4C[C@H](O)CC[C@]4(C)[C@H]3C[C@H](O)[C@]12C | 0.751
20 | COC(=O)C1=CO[C@@H](C)[C@@H]2CN3CCc4c([nH]c5ccccc45)[C@@H]3C[C@H]12 | 0.734
21 | C[C@@H]1O[C@@H](O[C@H]2[C@H](O[C@H]3CC[C@@]4(C)[C@@H](CC[C@]5(C)[C@@H]4CC=C4[C@@H]6CC(C)(C)CC[C@]6(C(=O)O[C@@H]6O[C@H](CO[C@@H]7O[C@H](CO)[C@@H](O[C@@H]8O[C@@H](C)[C@H](O)[C@@H](O)[C@H]8O)[C@H](O)[C@H]7O)[C@@H](O)[C@H](O)[C@H]6O)CC[C@]45C)[C@]3(C)CO)OC[C@H](O)[C@@H]2O)[C@H](O)[C@H](O)[C@H]1O | 1.15

The listing continues:

Row | SMILES | normalized bacterial growth
25 | O=C(O)C(S)C(S)C(=O)O (configuration not stated) | 1.2
26 | CCn1nc(C(=O)O)c(=O)c2cc3c(cc21)OCO3 [Cinoxacin] | 0.0422
27 | Cc1cc(/C=C/c2ccc3cc(N(C)C)ccc3[n+]2C)c(C)n1-c1ccccc1 | 0.797
28 | COCCOC(=O)C1=C(C)NC(C)=C(C(=O)OC/C=C/c2ccccc2)C1c1cccc([N+](=O)[O-])c1 (configuration not stated) [Cilnidipine] | 0.595
29 | CC(C)=CCC/C(C)=C/CC/C(C)=C/CC/C(C)=C/CC/C(C)=C/CC/C(C)=C/CC/C(C)=C/CC/C(C)=C/CC/C(C)=C/CO | 1.32
30 | CCCCNc1ccc(C(=O)OCCOCCOCCOCCOCCOCCOCCOCCOCCOC)cc1 [Benzonatate] | 0.735
31 | Cc1ccc(Cl)c(Nc2ccccc2C(=O)O)c1Cl [Meclofenamic acid sodium] | 1.29
32 | Cc1ccc(Cl)c(Nc2ccccc2C(=O)O)c1Cl [Meclofenamic acid sodium salt monohydrate] | 1.07
33 | O=C(NCCO[N+](=O)[O-])c1cccnc1 [Nicorandil] | 1.02
34 | CCN1CCN(C(=O)N[C@@H](C(=O)N[C@@H]2C(=O)N3C(C(=O)O)=C(CSc4nnnn4C)CS[C@H]23)c2ccc(O)cc2)C(=O)C1=O | 1
35 | CCN1CCN(C(=O)N[C@@H](C(=O)N[C@@H]2C(=O)N3C(C(=O)O)=C(CSc4nnnn4C)CS[C@H]23)c2ccc(O)cc2)C(=O)C1=O [Cefoperazone dihydrate] | 0.973
36 | CN(C)CCOc1ccc(/C(=C(/CCCl)c2ccccc2)c2ccccc2)cc1 | 1.68
37 | CC(C(=O)O)c1ccc(N2Cc3ccccc3C2=O)cc1 (configuration not stated) | 0.867
38 | CC1=Nc2ccc(Cl)cc2S(=O)(=O)N1 [Diazoxide] | 0.979
39 | Oc1ccc(OCc2ccccc2)cc1 [Monobenzone] | 1.16
40 | CCCn1c(=O)c2c(ncn2C)n(CCC)c1=O ["1,3-Dipropyl-7-methylxanthine"] | 1.31
41 | C[C@H]1C[C@H]2[C@@H]3CCC4=CC(=O)C=C[C@]4(C)[C@@]3(F)[C@@H](O)C[C@]2(C)[C@@]1(O)C(=O)CO [Betamethasone] | 1.085 ± 0.009
42 | CC(C)C1=CC2=CC[C@@H]3[C@](C)(CCC[C@@]3(C)C(=O)O)[C@H]2CC1 | 1.1
43 | C=CCN1CCc2c(cc(O)c(O)c2Br)[C@@H](c2ccccc2)C1 [R(+)-6-Bromo-APB hydrobromide] | 1.21
44 | Cc1cccc(C#Cc2ccccc2)n1 [6-Methyl-2-(phenylethynyl)pyridine hydrochloride] | 0.919
45 | C[C@H](O)C(=O)Nc1c(I)c(C(=O)NC(CO)CO)c(I)c(C(=O)NC(CO)CO)c1I [Iopamidol] | 1.08
46 | O=c1cc[nH]c(=S)[nH]1 | 1.02
47 | CC(C)CC(=O)N[C@H](C(=O)N[C@H](C(=O)N[C@@H](CC(C)C)[C@@H](O)CC(=O)N[C@@H](C)C(=O)N[C@@H](CC(C)C)[C@@H](O)CC(=O)O)C(C)C)C(C)C [Pepstatin A] | 1.16
48 | O=C1CC2(CCCC2)CC(=O)N1CCCCN1CCN(c2ncccn2)CC1 [Buspirone hydrochloride] | 1.11

Row | SMILES | normalized bacterial growth
49 | CC[C@H]1OC(=O)[C@H](C)[C@@H](O[C@H]2C[C@@](C)(OC)[C@@H](O)[C@H](C)O2)[C@H](C)[C@@H](O[C@@H]2O[C@H](C)C[C@H](N(C)C)[C@H]2O)[C@](C)(O)C[C@@H](C)[C@@H]2N[C@@H](COCCOC)O[C@H]([C@H]2C)[C@]1(C)O | 0.895
50 | Cc1cc(C)c(/C=C2\C(=O)Nc3ccccc32)[nH]1 | 0.919
51 | CC(C)/C(O)=C1/C(=O)O[C@@H](c2ccoc2)[C@]2(C)C(O)[C@@H](O)[C@@]34OC5(C)OC67CC(C)(C(O)[C@]6(O)[C@@H](O)[C@]3(O5)C12)[C@H](CC(=O)O)[C@]74C (some centres not stated) | 0.872
52 | CC1(C)CC[C@]2(C(=O)O)CC[C@]3(C)C(=CC[C@@H]4[C@@]5(C)CC[C@H](O)[C@@](C)(CO)[C@@H]5CC[C@]43C)[C@@H]2C1 | 1.35
53 | CCn1ccnc1CC1COc2ccccc2O1 (configuration not stated) [Imiloxan hydrochloride] | 1.07
54 | COc1c(O)cccc1O | 1.15
55 | COC(=O)CC[C@@H](C)[C@H]1CC[C@H]2[C@@H]3[C@H](O)C[C@@H]4C[C@H](O)CC[C@]4(C)[C@H]3C[C@H](O)[C@]12C | 0.983
56 | Cc1cc(CC(=O)O)n(C)c1C(=O)c1ccc(Cl)cc1 | 0.992
57 | Cc1cc(CC(=O)O)n(C)c1C(=O)c1ccc(Cl)cc1 [Zomepirac sodium salt] | 1.1
58 | NCCNC(=O)c1ncsc1-c1cccc(F)c1 [Ro 41-1049 hydrochloride] | 1.21
59 | O=C(O)C1=CCCNC1 [Guvacine hydrochloride] | 0.805
60 | CC12CCC(CC1)C(C)(C)O2 | 1.02
61 | CC(C)C[C@@H]1NC(=O)[C@H](CCCN)NC(=O)[C@H](C(C)C)NC(=O)[C@H](Cc2ccc(O)cc2)N[C@@H](CCC(=O)O)C(=O)N[C@@H](CC(N)=O)C(=O)[C@@H](Cc2ccccc2)NC(=O)[C@H](Cc2ccccc2)NC(=O)[C@@H]2CCCN2C(=O)[C@@H](Cc2ccccc2)NC1=O | 1.45
62 | C[C@H](CCC(=O)O)[C@H]1CC[C@H]2[C@@H]3CC[C@@H]4C[C@H](O)CC[C@]4(C)[C@H]3C[C@H](O)[C@]12C | 0.733
63 | COc1ccc2cc(C(C)C(=O)O)ccc2c1 (configuration not stated) | 0.645
64 | Nc1ncnc2c1nc(Sc1ccc(Cl)cc1)n2C1OC2COP(=O)(O)O[C@@H]2[C@@H]1O (some centres not stated) [8-(4-Chlorophenylthio)-cAMP sodium] | 1.25
65 | CCC(=O)c1c(O)cc(O)cc1O | 1.16
66 | CC1Cc2ccccc2N1NC(=O)c1ccc(Cl)c(S(N)(=O)=O)c1 (configuration not stated) | 1.27
67 | Nc1nc2[nH]c(=O)cnc2c(=O)[nH]1 [Isoxanthopterin] | 1.1
68 | CC(C)(C)[C@]1(O)CCN2C[C@H]3c4ccccc4CCc4cccc(c43)[C@@H]2C1 [(+)-Butaclamol hydrochloride] | 0.523
69 | CC(=O)O[C@@H]1CC2C(C)(C)C(=O)C3OC3[C@]2(C)C2CC[C@@]3(C)[C@H](c4ccoc4)OC(=O)C4OC43[C@@]21C (some centres not stated) | 0.897
70 | CO/N=C(\C(=O)N[C@@H]1C(=O)N2C(C(=O)O)=C(COC(N)=O)CS[C@H]12)c1ccco1 | 0.945
71 | CO/N=C(\C(=O)N[C@@H]1C(=O)N2C(C(=O)O)=C(COC(N)=O)CS[C@H]12)c1ccco1 [Cefuroxime sodium salt] | 1.15
72 | O=C(NCC(O)CO)c1c(I)c(C(=O)NCC(O)CO)c(I)c(N(CCO)C(=O)CO)c1I (configuration not stated) [Ioversol] | 0.97
